Values of other authors in patent US20070197568A1, “Methods of using SAHA and Erlotinib for treating cancer” (priority 2005, published 2007).

Legend:
[1] = animals
[2] = tested on: carcinogen-induced (N-methylnitrosourea) mammary tumors; settings: rats, SAHA in diet over the 130 days of the study

O=C(CCCCCCC(=O)Nc1ccccc1)NO [SAHA, N-Hydroxy-N′-phenyl octanediamide]
inhibition of tumor growth [1]: effective at inhibiting tumor growth | inhibition of development and continued growth of mammary tumors [2]: effective at inhibiting the development and continued growth
